Some entries share one result that the patent states for a list of compounds. Some ranges recur; such a range may be that of the whole group of compounds.
Target: T1, human histamine H3 receptor (Homo sapiens, UniProt Q9Y5N1)
T1 construct: expressed in transfected cells; host or cells: CHO K1 cells carrying pSwitch, transfected with pGeneH3 and induced with mifepristone; membranes of clone 3H3
Assay: Histamine H3 functional antagonist assay
Format: biochemical
Settings: membranes of CHO K1 cells expressing human histamine H3; [35S]GTPγS SPA; histamine 0.3 μM

Amino acid sequences for entries named in this document (tags omitted). A change or cut given only in a name is not applied to a line headed by its entry.
UniProt Q9Y5N1: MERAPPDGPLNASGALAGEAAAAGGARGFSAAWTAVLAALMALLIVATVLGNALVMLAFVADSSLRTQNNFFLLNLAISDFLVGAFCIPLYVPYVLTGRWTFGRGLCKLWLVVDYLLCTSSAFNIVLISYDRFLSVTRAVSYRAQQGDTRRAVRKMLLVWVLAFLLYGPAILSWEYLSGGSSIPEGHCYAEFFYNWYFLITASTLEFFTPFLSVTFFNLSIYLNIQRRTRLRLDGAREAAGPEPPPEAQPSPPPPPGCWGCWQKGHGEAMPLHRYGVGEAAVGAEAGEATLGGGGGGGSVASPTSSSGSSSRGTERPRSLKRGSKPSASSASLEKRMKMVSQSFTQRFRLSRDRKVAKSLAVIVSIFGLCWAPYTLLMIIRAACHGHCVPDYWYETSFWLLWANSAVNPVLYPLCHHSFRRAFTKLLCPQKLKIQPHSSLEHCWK

Row | SMILES | antagonism (pKb)
1 | c1cnc(N2CCC(Oc3ccc4c(c3)CCN(C3CCC3)CC4)CC2)cn1 [Example 166, 3-Cyclobutyl-7-{[1-(2-pyrazinyl)-4-piperidinyl]oxy}-2,3,4,5-tetrahydro-1H-3-benzazepine] | 6.5-10.5 pKb
2 | O=C(CCCOc1ccc2c(c1)CCN(C1CCC1)CC2)N1CCCCC1 [Example 167, 3-Cyclobutyl-7-{[4-oxo-4-(1-piperidinyl)butyl]oxy}-2,3,4,5-tetrahydro-1H-3-benzazepine] | 6.5-10.5 pKb
3 | O=C(CCCOc1ccc2c(c1)CCN(C1CCC1)CC2)N1CCCC1 [Example 168, 3-Cyclobutyl-7-{[4-oxo-4-(1-pyrrolidinyl)butyl]oxy}-2,3,4,5-tetrahydro-1H-3-benzazepine] | 6.5-10.5 pKb
4 | O=C(CCCOc1ccc2c(c1)CCN(C1CCC1)CC2)NC1CCCC1 [Example 169, 4-[(3-Cyclobutyl-2,3,4,5-tetrahydro-1H-3-benzazepin-7-yl)oxy]-N-cyclopentylbutanamide] | 6.5-10.5 pKb
5 | CNC(=O)CCCOc1ccc2c(c1)CCN(C1CCC1)CC2 [Example 170, 4-[(3-Cyclobutyl-2,3,4,5-tetrahydro-1H-3-benzazepin-7-yl)oxy]-N-methylbutanamide] | 6.5-10.5 pKb
6 | CC(C)NC(=O)c1cnc(Oc2ccc3c(c2)CCN(C2CCC2)CC3)cn1 [Example 171, 5-[(3-Cyclobutyl-2,3,4,5-tetrahydro-1H-3-benzazepin-7-yl)oxy]-N-(1-methylethyl)-2-pyrazinecarboxamide] | 6.5-10.5 pKb
7 | O=C(NC1CCOCC1)c1cnc(Oc2ccc3c(c2)CCN(C2CCC2)CC3)cn1 [Example 172, 5-[(3-Cyclobutyl-2,3,4,5-tetrahydro-1H-3-benzazepin-7-yl)oxy]-N-(tetrahydro-2H-pyran-4-yl)-2-pyrazinecarboxamide] | 6.5-10.5 pKb
8 | O=C(c1cnc(Oc2ccc3c(c2)CCN(C2CCC2)CC3)cn1)N1CCC1 [Example 173, 7-{[5-(1-Azetidinylcarbonyl)-2-pyrazinyl]oxy}-3-cyclobutyl-2,3,4,5-tetrahydro-1H-3-benzazepine] | 6.5-10.5 pKb
9 | CCN(CC)C(=O)c1cnc(Oc2ccc3c(c2)CCN(C2CCC2)CC3)cn1 [Example 174, 5-[(3-Cyclobutyl-2,3,4,5-tetrahydro-1H-3-benzazepin-7-yl)oxy]-N,N-diethyl-2-pyrazinecarboxamide] | 6.5-10.5 pKb
10 | COCCNC(=O)c1cnc(Oc2ccc3c(c2)CCN(C2CCC2)CC3)cn1 [Example 175, 5-[(3-Cyclobutyl-2,3,4,5-tetrahydro-1H-3-benzazepin-7-yl)oxy]-N-[2-(methyloxy)ethyl]-2-pyrazinecarboxamide] | 6.5-10.5 pKb
11 | CCNC(=O)c1cnc(Oc2ccc3c(c2)CCN(C2CCC2)CC3)cn1 [Example 176, 5-[(3-Cyclobutyl-2,3,4,5-tetrahydro-1H-3-benzazepin-7-yl)oxy]-N-ethyl-2-pyrazinecarboxamide] | 6.5-10.5 pKb
12 | O=C(c1ncc(Oc2ccc3c(c2)CCN(C2CCC2)CC3)cn1)N1CCOCC1 [Example 177, 3-Cyclobutyl-7-{[2-(4-morpholinylcarbonyl)-5-pyrimidinyl]oxy}-2,3,4,5-tetrahydro-1H-3-benzazepine] | 6.5-10.5 pKb
13 | O=C(NCC1CC1)c1ncc(Oc2ccc3c(c2)CCN(C2CCC2)CC3)cn1 [Example 178, 5-[(3-Cyclobutyl-2,3,4,5-tetrahydro-1H-3-benzazepin-7-yl)oxy]-N-(cyclopropylmethyl)-2-pyrimidinecarboxamide] | 6.5-10.5 pKb
14 | CCNC(=O)c1ncc(Oc2ccc3c(c2)CCN(C2CCC2)CC3)cn1 [Example 179, 5-[(3-Cyclobutyl-2,3,4,5-tetrahydro-1H-3-benzazepin-7-yl)oxy]-N-ethyl-2-pyrimidinecarboxamide] | 6.5-10.5 pKb
15 | O=C(c1ncc(Oc2ccc3c(c2)CCN(C2CCC2)CC3)cn1)N1CCC1 [Example 180, 7-{[2-(1-Azetidinylcarbonyl)-5-pyrimidinyl]oxy}-3-cyclobutyl-2,3,4,5-tetrahydro-1H-3-benzazepine] | 6.5-10.5 pKb
16 | CCN(C)C(=O)c1ncc(Oc2ccc3c(c2)CCN(C2CCC2)CC3)cn1 [Example 181, 5-[(3-Cyclobutyl-2,3,4,5-tetrahydro-1H-3-benzazepin-7-yl)oxy]-N-ethyl-N-methyl-2-pyrimidinecarboxamide] | 6.5-10.5 pKb
17 | O=C(NC1CCC1)c1ncc(Oc2ccc3c(c2)CCN(C2CCC2)CC3)cn1 [Example 182, N-Cyclobutyl-5-[(3-cyclobutyl-2,3,4,5-tetrahydro-1H-3-benzazepin-7-yl)oxy]-2-pyrimidinecarboxamide] | 6.5-10.5 pKb
18 | O=C(NC1CCOCC1)c1ncc(Oc2ccc3c(c2)CCN(C2CCC2)CC3)cn1 [Example 183, 5-[(3-Cyclobutyl-2,3,4,5-tetrahydro-1H-3-benzazepin-7-yl)oxy]-N-(tetrahydro-2H-pyran-4-yl)-2-pyrimidinecarboxamide] | 6.5-10.5 pKb

Row | SMILES | antagonism (pKb)
19 | O=C(c1ncc(Oc2ccc3c(c2)CCN(C2CCC2)CC3)cn1)N1CCCC1 [Example 184, 3-Cyclobutyl-7-{[2-(1-pyrrolidinylcarbonyl)-5-pyrimidinyl]oxy}-2,3,4,5-tetrahydro-1H-3-benzazepine] | 6.5-10.5 pKb
20 | O=C(c1ncc(Oc2ccc3c(c2)CCN(C2CCC2)CC3)cn1)N1CCCCC1 [Example 185, 3-Cyclobutyl-7-{[2-(1-piperidinylcarbonyl)-5-pyrimidinyl]oxy}-2,3,4,5-tetrahydro-1H-3-benzazepine] | 6.5-10.5 pKb
21 | CNC(=O)c1ncc(Oc2ccc3c(c2)CCN(C2CCC2)CC3)cn1 [Example 186, 5-[(3-Cyclobutyl-2,3,4,5-tetrahydro-1H-3-benzazepin-7-yl)oxy]-N-methyl-2-pyrimidinecarboxamide] | 6.5-10.5 pKb
22 | CNC(=O)c1ccc(Oc2ccc3c(c2)CCN(C2CCC2)CC3)cn1 [Example 187, 5-[(3-Cyclobutyl-2,3,4,5-tetrahydro-1H-3-benzazepin-7-yl)oxy]-N-methyl-2-pyridinecarboxamide] | 6.5-10.5 pKb
23 | CCNC(=O)c1ccc(Oc2ccc3c(c2)CCN(C2CCC2)CC3)cn1 [Example 188, 5-[(3-Cyclobutyl-2,3,4,5-tetrahydro-1H-3-benzazepin-7-yl)oxy]-N-ethyl-2-pyridinecarboxamide] | 6.5-10.5 pKb
24 | CCN(C)C(=O)c1ccc(Oc2ccc3c(c2)CCN(C2CCC2)CC3)cn1 [Example 189, 5-[(3-Cyclobutyl-2,3,4,5-tetrahydro-1H-3-benzazepin-7-yl)oxy]-N-ethyl-N-methyl-2-pyridinecarboxamide] | 6.5-10.5 pKb
25 | CCN(CC)C(=O)c1ccc(Oc2ccc3c(c2)CCN(C2CCC2)CC3)cn1 [Example 190, 5-[(3-Cyclobutyl-2,3,4,5-tetrahydro-1H-3-benzazepin-7-yl)oxy]-N,N-diethyl-2-pyridinecarboxamide] | 6.5-10.5 pKb
26 | CCN(CCOC)C(=O)c1ccc(Oc2ccc3c(c2)CCN(C2CCC2)CC3)cn1 [Example 191, 5-[(3-Cyclobutyl-2,3,4,5-tetrahydro-1H-3-benzazepin-7-yl)oxy]-N-ethyl-N-[2-(methyloxy)ethyl]-2-pyridinecarboxamide] | 6.5-10.5 pKb
27 | O=C(c1ccc(Oc2ccc3c(c2)CCN(C2CCC2)CC3)cn1)N1CCCC1 [Example 192, 3-Cyclobutyl-7-{[6-(1-pyrrolidinylcarbonyl)-3-pyridinyl]oxy}-2,3,4,5-tetrahydro-1H-3-benzazepine] | 6.5-10.5 pKb
28 | O=C(c1ccc(Oc2ccc3c(c2)CCN(C2CCC2)CC3)cn1)N1CCOCC1 [Example 193, 3-Cyclobutyl-7-{[6-(4-morpholinylcarbonyl)-3-pyridinyl]oxy}-2,3,4,5-tetrahydro-1H-3-benzazepine] | 6.5-10.5 pKb
29 | O=C(c1ccc(Oc2ccc3c(c2)CCN(C2CCC2)CC3)cn1)N1CCCOCC1 [Example 194, 3-Cyclobutyl-7-{[6-(tetrahydro-1,4-oxazepin-4(5H)-ylcarbonyl)-3-pyridinyl]oxy}-2,3,4,5-tetrahydro-1H-3-benzazepine] | 6.5-10.5 pKb
30 | O=C(NC1CCCC1)c1ccc(Oc2ccc3c(c2)CCN(C2CCC2)CC3)cn1 [Example 195, 5-[(3-Cyclobutyl-2,3,4,5-tetrahydro-1H-3-benzazepin-7-yl)oxy]-N-cyclopentyl-2-pyridinecarboxamide] | 6.5-10.5 pKb
31 | O=C(NC1CC1)c1ccc(Oc2ccc3c(c2)CCN(C2CCC2)CC3)nc1 [Example 196, 6-[(3-Cyclobutyl-2,3,4,5-tetrahydro-1H-3-benzazepin-7-yl)oxy]-N-cyclopropyl-3-pyridinecarboxamide] | 6.5-10.5 pKb
32 | CC(C)NC(=O)c1ccc(Oc2ccc3c(c2)CCN(C2CCC2)CC3)nc1 [Example 197, 6-[(3-Cyclobutyl-2,3,4,5-tetrahydro-1H-3-benzazepin-7-yl)oxy]-N-(1-methylethyl)-3-pyridinecarboxamide] | 6.5-10.5 pKb
33 | CCNC(=O)c1ccc(Oc2ccc3c(c2)CCN(C2CCC2)CC3)nc1 [Example 198, 6-[(3-Cyclobutyl-2,3,4,5-tetrahydro-1H-3-benzazepin-7-yl)oxy]-N-ethyl-3-pyridinecarboxamide] | 6.5-10.5 pKb
34 | O=C(NC1CCC1)c1ccc(Oc2ccc3c(c2)CCN(C2CCC2)CC3)nc1 [Example 199, N-Cyclobutyl-6-[(3-cyclobutyl-2,3,4,5-tetrahydro-1H-3-benzazepin-7-yl)oxy]-3-pyridinecarboxamide] | 6.5-10.5 pKb
35 | O=C(NC1CCOCC1)c1ccc(Oc2ccc3c(c2)CCN(C2CCC2)CC3)nc1 [Example 200, 6-[(3-Cyclobutyl-2,3,4,5-tetrahydro-1H-3-benzazepin-7-yl)oxy]-N-(tetrahydro-2H-pyran-4-yl)-3-pyridinecarboxamide] | 6.5-10.5 pKb
36 | CCN(CC)C(=O)c1ccc(Oc2ccc3c(c2)CCN(C2CCC2)CC3)nc1 [Example 201, 6-[(3-Cyclobutyl-2,3,4,5-tetrahydro-1H-3-benzazepin-7-yl)oxy]-N,N-diethyl-3-pyridinecarboxamide] | 6.5-10.5 pKb

Reference: patent publication US7704994B2, “Benzazepine derivatives for the treatment of neurological disorders” (Glaxo Group Limited, priority 2002, dated 2010)
